Data published in the supplement of paper PMC6331611.
± gives the standard deviation of the averaged measurements. Whole data set: some 1,600 compounds, median “normalized intracellular growth (luminescence, IQM-normalized) in RAW264.7 macrophages” near 1, cut for the lowest 2% near 0.43. The list shows a part of the results.

Tested on: Salmonella enterica serovar Typhimurium SL1344
Test: normalized intracellular growth (luminescence, IQM-normalized) in RAW264.7 macrophages (fraction of plate interquartile mean); higher = more bacterial growth (less inhibition)
Details: 10 µM

| SMILES | normalized intracellular growth (time point: T3 (3 h)) | normalized intracellular growth (time point: Tfinal (~6 h)) |
| --- | --- | --- |
| CN1C(CCl)Nc2cc(Cl)c(S(N)(=O)=O)cc2S1(=O)=O (stereo unspecified) | 0.922 ± 0.043 | 0.711 ± 0.18 |
| C=CC1=C(C(=O)O)N2C(=O)[C@@H](NC(=O)/C(=N\O)c3csc(N)n3)[C@H]2SC1 | 0.973 ± 0.034 | 0.0262 ± 0.0031 |
| OCc1ccccc1O[C@@H]1O[C@H](CO)[C@@H](O)[C@H](O)[C@H]1O | 1.03 ± 0.044 | 1.02 ± 0.013 |
| Cc1cn([C@H]2C=C[C@@H](CO)O2)c(=O)[nH]c1=O | 1.01 ± 0.059 | 1.18 ± 0.13 |
| CC(=O)NS(=O)(=O)c1ccc(N)cc1 | 1.05 ± 0.028 | 0.967 ± 0.062 |
| CCN(CC)CC(=O)Nc1c(C)cccc1C | 0.986 ± 0.039 | 1.02 ± 0.059 |
| c1ccc2c(CC3=NCCN3)cccc2c1 | 1 ± 0.021 | 1.09 ± 0.053 |
| CC(=O)OCC(=O)[C@@]12OC(C)(C)O[C@@H]1C[C@H]1[C@@H]3C[C@H](F)C4=CC(=O)C=C[C@]4(C)[C@@]3(F)[C@@H](O)C[C@@]12C | 0.903 ± 0.063 | 0.872 ± 0.072 |
| O=c1oc2c(O)c(O)cc3c(=O)oc4c(O)c(O)cc1c4c23 | 0.983 ± 0.0091 | 0.79 ± 0.23 |
| O=C1NS(=O)(=O)c2ccccc21 | 0.992 ± 0.048 | 1.01 ± 0.071 |
| CC(=O)CC(c1ccccc1)c1c(O)c2ccccc2oc1=O (stereo unspecified) | 0.971 ± 0.064 | 1.22 ± 0.14 |
| OCCN(CCO)c1nc(N2CCCCC2)c2nc(N(CCO)CCO)nc(N3CCCCC3)c2n1 | 1.03 ± 0.021 | 1.24 ± 0.2 |
| O=C(O)c1ccccc1C(=O)Nc1ccc(S(=O)(=O)Nc2nccs2)cc1 | 0.992 ± 0.04 | 0.914 ± 0.1 |
| C[N+](C)(C)CC(=O)O | 1.05 ± 0.037 | 0.964 ± 0.054 |
| C[C@]12CC[C@@H]3c4ccc(OC(=O)c5ccccc5)cc4CC[C@H]3[C@@H]1CC[C@@H]2O | 0.747 ± 0.015 | 0.877 ± 0.072 |
| CN1CCN(C(c2ccccc2)c2ccccc2)CC1 | 1.06 ± 0.016 | 0.853 ± 0.056 |
| C(=C\c1ccccc1)/CN1CCN(C(c2ccccc2)c2ccccc2)CC1 | 0.962 ± 0.084 | 0.976 ± 0.13 |
| Cc1c(-c2cnccn2)ssc1=S | 1.05 ± 0.084 | 0.999 ± 0.22 |
| CCN(CC)CCNC(C(=O)OCCC(C)C)c1ccccc1 (stereo unspecified) | 0.991 ± 0.049 | 0.952 ± 0.23 |
| C[C@@H]1C[C@H]2[C@@H]3CCC4=CC(=O)C=C[C@]4(C)[C@@]3(F)[C@@H](O)C[C@]2(C)[C@@]1(O)C(=O)COP(=O)(O)O | 0.985 ± 0.023 | 1.02 ± 0.067 |
| N[C@@H](Cc1cc(I)c(Oc2ccc(O)c(I)c2)c(I)c1)C(=O)O | 0.708 ± 0.098 | 0.839 ± 0.049 |
| N[C@@H](Cc1cc(I)c(Oc2ccc(O)c(I)c2)c(I)c1)C(=O)O [LIOTHYRONINE (L- isomer) SODIUM] | 0.909 ± 0.09 | 0.957 ± 0.096 |

| SMILES | normalized intracellular growth (time point: T3 (3 h)) | normalized intracellular growth (time point: Tfinal (~6 h)) |
| --- | --- | --- |
| CN1CCC(=C2c3ccccc3Sc3ccccc32)CC1 | 1 ± 0.049 | 1.05 ± 0.15 |
| Nc1c2ccccc2nc2ccccc12 | 1.04 ± 0.023 | 0.907 ± 0.075 |
| C[C@H](CCC(=O)O)[C@H]1CC[C@H]2[C@@H]3[C@@H](O)C[C@@H]4C[C@H](O)CC[C@]4(C)[C@H]3CC[C@]12C | 0.939 ± 0.065 | 0.972 ± 0.083 |
| O=C(CCCN1CCN(c2ccccn2)CC1)c1ccc(F)cc1 | 1.17 ± 0.14 | 1.17 ± 0.45 |
| NC[C@@H]1O[C@@H](O[C@H]2[C@H](O)[C@@H](O[C@H]3O[C@H](CO)[C@@H](O)[C@H](N)[C@H]3O)[C@H](N)C[C@@H]2N)[C@@H](O)[C@H](O)[C@H]1O | 1.08 ± 0.046 | 1.13 ± 0.015 |
| CC1CC(OC(=O)c2ccccc2O)CC(C)(C)C1 (stereo unspecified) | 1.04 ± 0.032 | 1.07 ± 0.04 |
| O=C1c2ccccc2C(=O)C1c1ccc(Br)cc1 | 1.08 ± 0.047 | 1.15 ± 0.21 |
| NC(=O)CC[C@H](N)C(=O)O | 0.996 ± 0.029 | 0.867 ± 0.12 |
| CC=CC1=C(C(=O)O)N2C(=O)[C@@H](NC(=O)[C@H](N)c3ccc(O)cc3)[C@H]2SC1 | 1.06 ± 0.039 | 0.738 ± 0.11 |
| CCOC(=S)SSC(=S)OCC | 0.994 ± 0.036 | 0.924 ± 0.067 |
| Cc1cc2c(s1)Nc1ccccc1N=C2N1CCN(C)CC1 | 1.05 ± 0.088 | 0.959 ± 0.12 |
| Cc1cc(O)cc(C)c1Cl | 1.03 ± 0.075 | 1.11 ± 0.071 |
| CC(=O)N(c1onc(C)c1C)S(=O)(=O)c1ccc(N)cc1 | 0.951 ± 0.011 | 1.02 ± 0.17 |
| Oc1cccc(O)c1 | 0.998 ± 0.086 | 0.855 ± 0.22 |
| CC(N)CCCC(C)(C)O (stereo unspecified) | 0.974 ± 0.033 | 0.988 ± 0.22 |
| CN1CCCN=C1/C=C/c1cccc(O)c1 | 1.08 ± 0.061 | 0.78 ± 0.1 |
| C/C(=C\C(=O)OCCCCCCCCC(=O)O)C[C@@H]1OC[C@H](C[C@@H]2O[C@H]2[C@@H](C)[C@H](C)O)[C@@H](O)[C@H]1O | 1.001 ± 0.0097 | 1.1 ± 0.11 |
| CN/C(=N\CCSCc1nc[nH]c1C)NC#N | 0.964 ± 0.044 | 1.03 ± 0.13 |
| CC1/C=C/C=C/C=C/C=C/C=C/C=C/C=C/C(OC2O[C@H](C)[C@@H](O)[C@H](N)[C@@H]2O)CC(O)C(C(=O)O)C(O)CC(=O)CC(O)CC(O)CC(O)CC(=O)CCCC(=O)CC(=O)OC1C(C)CC(C)C(O)CC(=O)c1ccc(N)cc1 (stereo partly specified) | 1.02 ± 0.031 | 0.811 ± 0.12 |
| O=c1oc2cc(O)ccc2s1 | 1.02 ± 0.058 | 0.887 ± 0.16 |
| CCOc1ccc2nc(S(N)(=O)=O)sc2c1 | 1.13 ± 0.13 | 1.25 ± 0.092 |

2 consecutive entries out of the list so far, quoted:

| SMILES | normalized intracellular growth (time point: T3 (3 h)) | normalized intracellular growth (time point: Tfinal (~6 h)) |
| --- | --- | --- |
| C=CC1=C(C(=O)O)N2C(=O)[C@@H](NC(=O)/C(=N\O)c3csc(N)n3)[C@H]2SC1 | 0.973 ± 0.034 | 0.0262 ± 0.0031 |
| OCc1ccccc1O[C@@H]1O[C@H](CO)[C@@H](O)[C@H](O)[C@H]1O | 1.03 ± 0.044 | 1.02 ± 0.013 |
